# PubChem BioAssay AID504791 | Drosophila RNAi Screening Center, 2011
# Aim: 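Genes whose knock-down strengthens or weakens small-RNA reporter silencing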 (primary screen)
# Cells: Drosophila S2-derived reporter cells
# Knock-down reagent: long dsRNA against Drosophila genes, about 150-250 ng dsRNA per well (siRNA assay); about 80-120 ng (miRNA assay)
# Duration: about 5 days (siRNA assay); about 4 days (miRNA assay)
# Treatment: copper sulfate induction of reporters: 25 µM (siRNA assay); 200 mM stated (miRNA assay), 1-2 days before reading
# Measured: 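Dual luciferase assay: Renilla to firefly signal ratio in each well, scaled to the mean ratio of its plate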
# Rule for the call: 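a well was a first-pass pick when its plate-scaled ratio rose above 1.5 (siRNA assay) or 1.6 (miRNA assay), or dropped below 0.6; a gene counted only if two separate dsRNAs agreed on retest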
# The screen tested about 23,000 reagents; shown is a random part of those that have a named target and a result. Of all reagents, 199 (0.86%) got an active call. 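Plate-scaled ratios behind the calls are not deposited; printed light signals are raw; many rows marked increased or decreased are still called inactive.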 Reagents against one gene are numbered here. The record does not give: the direction of the score.
Gene,dsRNA no.,stable siRNA reporter change,miRNA reporter change,"stable assay Renilla, run 1 (luminescence)","stable assay firefly, run 1 (luminescence)",Call
CG31928,1,,,18910,2.22e5,inactive
CG9368,1,,,8432,3.46e5,inactive
obst-J,1,,,8066,4.59e5,inactive
AttD,1,,,3868,3.71e5,inactive
CG8379,1,,,7198,4.67e5,inactive
ck,1,,,6870,1.39e6,inactive
Grasp65,1,,,7431,3.49e5,inactive
Lk,1,,,6846,4.15e5,inactive
Ts,1,,,7827,5.65e5,inactive
Ts,2,,,8418,5.80e5,inactive
Socs36E,1,,,6518,1.31e6,inactive
CG12056,1,,,7063,4.92e5,inactive
piwi,1,,,8274,7.72e5,inactive
Ugt37C2,1,,,8134,4.11e5,inactive
Rs1,1,,reporter ratio lowered past the hit cutoff,7262,3.92e5,inactive
Acp53C14b,1,,,6232,3.02e5,inactive
CG13005,1,,,5423,3.99e5,inactive
CG4763,1,,,5063,4.94e5,inactive
CG4763,2,,,7295,4.41e5,inactive
CG31437,1,,,7994,5.54e5,inactive
CG3376,1,,,24441,2.03e6,inactive
aPKC,1,,,6700,3.55e5,inactive
aPKC,2,,,6063,2.73e5,inactive
Obsc,1,,,2232,2.49e5,inactive
Obsc,2,,,7938,1.43e6,inactive
Obsc,3,,,5687,3.69e5,inactive
Obsc,4,,,6927,4.69e5,inactive
Obsc,5,,,5003,4.89e5,inactive
CG31627,1,,,9200,5.63e5,inactive
DIP2,1,,,10029,3.80e5,inactive
CG18048,1,,,6055,3.28e5,inactive
NUCB1,1,,,10138,7.04e5,inactive
CG10959,1,,,8423,7.74e5,inactive
CG6067,1,,,5660,2.76e5,inactive
CG12479,1,,,5179,4.92e5,inactive
CG12848,1,,,6455,4.88e5,inactive
Atat,1,,,8497,4.49e5,inactive
CG8818,1,,,7370,4.44e5,inactive
scny,1,,reporter ratio lowered past the hit cutoff,7707,4.30e5,active
scny,2,,,6358,3.37e5,inactive
scny,3,,,5808,3.13e5,inactive
Prosbeta5,1,reporter ratio raised past the hit cutoff,reporter ratio raised past the hit cutoff,7803,1.73e5,active
Usp8,1,,,10242,4.20e5,inactive
mEFTu1,1,,,7184,4.69e5,inactive
SkpC,1,,,5948,5.03e5,inactive
Ttc26,1,reporter ratio raised past the hit cutoff,,6855,4.17e5,inactive
Cpr51A,1,,,6851,3.46e5,inactive
Cyp4ac3,1,,,10301,2.74e5,inactive
CG31659,1,,,6683,3.46e5,inactive
Usp14,1,,,8529,4.20e5,inactive
Npc1a,1,,,6882,4.61e5,inactive
CG14322,1,,,7839,4.89e5,inactive
Ilp3,1,,,5795,3.34e5,inactive
Dci,1,,,3451,3.38e5,inactive
hay,1,,,5690,3.26e5,inactive
CG14958,1,,,7790,4.52e5,inactive
CG13247,1,,,6650,4.42e5,inactive

Part of the list above, set out differently.
Gene	dsRNA no.	stable siRNA reporter change	miRNA reporter change	stable assay Renilla, run 1 (luminescence)	stable assay firefly, run 1 (luminescence)	Call
Cpr51A	1			6851	3.46e5	inactive
Cyp4ac3	1			10301	2.74e5	inactive
CG31659	1			6683	3.46e5	inactive
Usp14	1			8529	4.20e5	inactive
Npc1a	1			6882	4.61e5	inactive
CG14322	1			7839	4.89e5	inactive
